Measured data: PubChem BioAssay AID1224828 (NIAID, 2016)

- Screen: 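Knock-downs that increase or decrease LPS-induced p65 nuclear translocation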 (primary screen)
- Cells: mouse RAW264.7 G9 macrophage reporter cells (GFP-p65, Tnf promoter-mCherry)
- Knock-down reagent: siRNA pool against mouse genes, 100 nM
- Duration: 2 days siRNA transfection, then 40 min LPS before fixation
- Conditions: LPS (Salmonella minnesota R595) at 10 ng/ml
- Detection: 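Microscopy ratio of nuclear to perinuclear-ring GFP-p65 signal, scaled to the plate median; gene score is the average of two replicate robust z-scores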
- Reading the numbers: p65 translocation robust z-score: higher = more nuclear NF-kappaB p65 after LPS than the plate median; nuclear/cytoplasmic p65 ratio: higher = more nuclear NF-kappaB p65
- Hit rule: 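Called active when z exceeds 3.3 or falls under -1.56 (median of Tlr4 controls), giving activity score of at least 50; no calls for control wells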
- Calls: active = hit (p65 shift raised or lowered); inactive = no clear change
This is an unselected part of about 17,000 deposited reagents. Of all reagents, 762 (4.5%) are marked active. 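Active calls include both raised and lowered p65 entry, mostly lowered; wells with fewer than 50 cells lack a z-score.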 Raw values are not corrected between plates. A number with no mark means an inactive call.

gene symbol	p65 translocation robust z-score	nuclear/cytoplasmic p65 ratio, rep 1	nuclear/cytoplasmic p65 ratio, rep 2	low cell count flag
Sox2	-1.72 (active)	1.36	1.25	enough cells to score
Or5w22	-0.2	1.54	1.43	enough cells to score
AA986860	1.27	1.59	1.66	enough cells to score
Anxa2	-0.63	1.52	1.52	enough cells to score
Ube2s	-0.07	1.59	1.41	enough cells to score
Lrrd1		1.18	1.37	fewer than 50 cells per well; well left out of scoring
Lrrfip1		1.52	1.18	fewer than 50 cells per well; well left out of scoring
Elac2	0.09	1.54	1.32	enough cells to score
Thrap3	1.57	1.61	1.87	enough cells to score
Anks1	0.27	1.48	1.89	enough cells to score
Tcp11l1	-1.5	1.24	1.3	enough cells to score
Whr1	0.02	1.67	1.41	enough cells to score
Prkn	0.96	1.52	1.59	enough cells to score
Hmgcr	-0.56	1.35	1.32	enough cells to score
Hsd17b1	-0.07	1.46	1.34	enough cells to score
Cer1	0.63	1.63	1.95	enough cells to score
Tyk2	0.2	1.85	1.31	enough cells to score
Tmem201	-0.55	1.51	1.5	enough cells to score
Frs3	0.41	1.48	1.44	enough cells to score
Ammecr1	-0.41	1.54	1.57	enough cells to score
Prox1	-0.54	1.46	1.31	enough cells to score
Terb1	0.86	1.42	1.35	enough cells to score
Tent4a	0.49	1.55	1.49	enough cells to score
Or2l5	2.53	2.02	1.73	enough cells to score
Cetn3	1.36	1.72	1.49	enough cells to score
Fra10ac1	-0.36	1.52	1.59	enough cells to score
Col6a6	0.7	1.56	1.34	enough cells to score
Osr2	1.6	1.64	1.44	enough cells to score
Itgae	-0.78	1.36	1.29	enough cells to score
Snrpa		1.86	1.35	fewer than 50 cells per well; well left out of scoring
Kcns3	0.19	1.5	1.26	enough cells to score
Ppp1r12b	0.57	1.51	1.89	enough cells to score
Ddx17		1.36	1.53	fewer than 50 cells per well; well left out of scoring
Ednra	-0.82	1.36	1.5	enough cells to score
Nr2e3	-0.92	1.39	1.24	enough cells to score
BC107364	1.35	1.85	1.66	enough cells to score
Hck	0.79	1.85	1.46	enough cells to score
Vmn1r9	-1.18	1.19	1.13	enough cells to score
Fpr-rs6	2.9	1.98	1.9	enough cells to score
Skic8		1.34	1.22	fewer than 50 cells per well; well left out of scoring
